Assay results from PubChem BioAssay AID2685 (National Center for Advancing Translational Sciences (NCATS), 2010).
Some of the results follow. The main result of the screen is listed elsewhere. These columns were measured beside it and carry no call. Compounds called inactive in the main read-out are mostly missing here. The note in brackets gives the kind of curve behind each potency; many fits are weak.

Assay: qHTS Assay for Lipid Storage Modulators in Drosophila S3 Cells;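 for cell number change: cells counted by Cell Tracker Red CMTPX staining in the red channel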
Settings: BODIPY lipid droplet fluorescence, 18-24 h; for cell number change: measured here: cell count max response, cells fed with added oleic acid
In short: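 Drosophila S3 cells loaded with oleic acid (400 uM, as added) and compounds at several concentrations; lipid droplets imaged by 488-nm laser-scanning cytometry, 500–530 nm intensity and object ratio to cell channel. Percent activity normalized to 20 uM Triacsin C.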

[1] = measured here: cell number channel AC50, cells fed with added oleic acid
[2] = measured here: lipid fluorescence (Fed channel) AC50, cells fed with added oleic acid

| SMILES | AC50 [1] | AC50 [2] | cell number change |
| --- | --- | --- | --- |
| Cc1ccccc1NC(=O)Cn1nc(C(F)(F)F)cc1C1CC1 | 0.184 µM [rising, partial curve] | 0.411 µM [rising, full curve] | – |
| CC(=O)C1=C(O)CC(c2ccccc2)CC1=NCCc1c(C)[nH]c2ccc(C)cc12 (stereo not drawn) | – | – | 1.83% |
| Cc1ccc(CN(CC(=O)NCCc2ccccc2)C(=O)c2csnn2)cc1 | – | 6.51 µM [falling, single point] | 19.1% |
| COc1ccc(C(CNC(=O)CCNC(=O)c2ccc(Br)cc2)N2CCOCC2)cc1 (stereo not drawn) | 11.6 µM [rising, partial curve] | 1.16 µM [rising, partial curve] | 36.6% |
| CCOCc1c(C(=O)NC2CCCCCC2)oc2ccccc12 | 13 µM [rising, partial curve, poor fit] | – | 102% |
| Cc1sc2ncn(CC(=O)Nc3ccccc3F)c(=O)c2c1-c1ccccc1 | – | – | 13.2% |
| CC(Oc1ccc(Br)cc1)C(=O)N1CCC(C(N)=O)CC1 (stereo not drawn) | – | 14.6 µM [falling, single point] | -27.1% |
| CCN1CCN(C(=O)CN(c2ccccc2C)S(C)(=O)=O)CC1 | – | 6.51 µM [falling, single point] | -15.6% |
| CCN(CC)C(=O)CSC1c2ccccc2C(=O)N1c1ccccc1 (stereo not drawn) | – | – | -20.7% |
| Cc1c(Cc2ccccc2)c(=O)oc2cc(OCC(N)=O)ccc12 | 0.00461 µM [falling, partial curve, poor fit] | – | -11.9% |
| Cn1cc(Br)c(C(=O)Nc2nccs2)n1 | – | 2.91 µM [rising, single point] | – |
| CCOC(=O)CSc1nnc2c(n1)C1(C)CCC2C1(C)C (stereo not drawn) | 1.3 µM [rising, full curve, poor fit] | 5.8 µM [rising, full curve] | 33.9% |
| Cc1coc2cc3oc(=O)c(CCC(=O)NCCCN4CCCC4=O)c(C)c3cc12 | – | 3.66 µM [falling, partial curve, poor fit] | -10.8% |
| CCOC(=O)c1ccc(NC(=O)CSc2n[nH]c(-c3ccncc3)n2)cc1 | – | 6.51 µM [rising, single point] | – |
| Clc1ccc(-c2cn3cccnc3n2)cc1Cl | 20.6 µM [rising, single point] | 1.46 µM [rising, partial curve, poor fit] | 36.4% |
| Cc1ccc(C(=O)N(Cc2ccc3c(c2)OCO3)Cc2nc3ccccc3c(=O)[nH]2)cc1 | – | 18.4 µM [rising, single point] | -2.39% |
| Cc1oc2ccc(OCc3ccc(Cl)cc3)cc2c1C(=O)O | – | – | -4.48% |

| SMILES | AC50 [1] | AC50 [2] | cell number change |
| --- | --- | --- | --- |
| CC(=O)C1=C(C)NC(=O)NC1c1ccc2c(c1)OCO2 (stereo not drawn) | 3.26 µM [falling, single point] | – | – |
| CC(Sc1nnc(-c2ccco2)n1C)C(=O)N(C)C1CCCCC1 (stereo not drawn) | 0.231 µM [falling, full curve, poor fit] | 0.291 µM [falling, full curve] | -7.82% |
| CC(=O)c1sc(NC(=O)CCN2C(=O)c3ccccc3C2=O)nc1C | – | – | -30.8% |
| COc1cc(-c2nnc(NC(=O)c3ccc(S(=O)(=O)N4CCOCC4)cc3)o2)cc(OC)c1OC | – | 0.13 µM [rising, full curve, poor fit] | 15.7% |
| Cc1ccc(NC(=O)C(C)Sc2nc3nc(C)cc(C)n3n2)cc1 (stereo not drawn) | – | 23.1 µM [falling, partial curve, poor fit] | 8.67% |
| Cc1n[nH]c(=O)c2c(NC(=O)COC(=O)COc3cccc(Br)c3)oc(C)c12 | – | 3.26 µM [rising, single point] | -2.56% |
| COc1ccc(S(=O)(=O)N2C3CCC2CC(NC(=O)C2CC2)C3)cc1 (stereo not drawn) | – | 0.00461 µM [falling, full curve, poor fit] | 10.7% |
| c1ccc2nc3ccccc3nc2c1 | – | 1.84 µM [rising, partial curve] | -7.98% |
| COc1ccc(C(=O)Nc2cccc(C(C)=O)c2)c(OC)c1OC | – | 0.58 µM [rising, single point] | – |
| CC(=O)c1ccc(NC(=O)c2noc(C)c2[N+](=O)[O-])cc1 | – | 5.17 µM [rising, single point] | 12.7% |
| CN(C)c1ccc(C(=O)NCCCSc2ccccc2)cc1 | – | – | -8.8% |
| CC(Sc1nnc(C2CC2)n1N)C(=O)NC1CCCCC1C (stereo not drawn) | 16.4 µM [falling, partial curve, poor fit] | – | -41.1% |
| COCCCNC(=O)CSc1ccsc1[N+](=O)[O-] | – | – | -16.8% |
| O=C(CCN1C(=O)C2C3CCC(C3)C2C1=O)Nc1ccc(Cl)cc1Cl (stereo not drawn) | – | – | -10.1% |
| Cc1cc(C)n(S(=O)(=O)/C=C/c2ccccc2)n1 | 1.46 µM [falling, full curve, poor fit] | 5.8 µM [falling, partial curve] | -36.8% |
| COc1ccc(S(=O)(=O)NCC(=O)N(Cc2ccco2)C(C(=O)NC(C)(C)C)C(C)C)cc1 (stereo not drawn) | – | – | -16.7% |

Two consecutive records out of the list so far, for reference:

| SMILES | AC50 [1] | AC50 [2] | cell number change |
| --- | --- | --- | --- |
| Cn1cc(Br)c(C(=O)Nc2nccs2)n1 | – | 2.91 µM [rising, single point] | – |
| CCOC(=O)CSc1nnc2c(n1)C1(C)CCC2C1(C)C (stereo not drawn) | 1.3 µM [rising, full curve, poor fit] | 5.8 µM [rising, full curve] | 33.9% |
